Test results taken from US9820966B2, “Stabilized statin formulations” (Cumberland Pharmaceuticals Inc., priority 2010, dated 2017).

Settings: preliminary lyophilized formulations of AS—Ca with HPβ-CD

CC(C)c1c(C(=O)Nc2ccccc2)c(-c2ccccc2)c(-c2ccc(F)cc2)n1CC[C@@H](O)C[C@@H](O)CC(=O)O [AS—Ca, atorvastatin calcium trihydrate]
initial stability of lyophilized formulation versus solution: improved stability
